Results deposited as PubChem BioAssay AID1224828 (NIAID, 2016)
In all, the deposit lists about 17,000 reagents; below is a random part of them. 762 of all reagents (4.5%) were called active. 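Active calls include both raised and lowered p65 entry, mostly lowered; wells with fewer than 50 cells lack a z-score.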 Raw values vary from plate to plate and are shown uncorrected. A number with no mark means an inactive call.

Screen: 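Find genes required for NF-kappaB p65 moving into the nucleus after LPS in mouse macrophages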 (primary screen)
Cell system: mouse RAW264.7 G9 macrophage reporter cells (GFP-p65, Tnf promoter-mCherry)
Reagent: siRNA pool against mouse genes, 100 nM
Time to read-out: 2 days siRNA transfection, then 40 min LPS before fixation
Conditions: LPS (Salmonella minnesota R595) at 10 ng/ml
Measurement: 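Imaged p65 nuclear translocation ratio, normalised to the plate median, converted to robust z-scores and averaged across two replicates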
Scale: p65 translocation robust z-score: higher = more nuclear NF-kappaB p65 after LPS than the plate median; nuclear/cytoplasmic p65 ratio: higher = more nuclear NF-kappaB p65
Hit rule: 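Called active when z exceeds 3.3 or falls under -1.56 (median of Tlr4 controls), giving activity score of at least 50; no calls for control wells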
Meaning of the calls: active = hit (p65 shift raised or lowered); inactive = no clear change

gene	p65 translocation robust z-score	nuclear/cytoplasmic p65 ratio, rep 1	nuclear/cytoplasmic p65 ratio, rep 2	low cell count flag
Or51v14	-0.14	1.5	1.19	enough cells to score
Hcn2	-0.37	1.37	1.34	enough cells to score
Npas2	-0.52	1.36	1.36	enough cells to score
Adissp		1.3	1.22	fewer than 50 cells per well; well left out of scoring
Ppef2	1.63	1.62	1.72	enough cells to score
Nelfcd	-1.46	1.18	1.04	enough cells to score
Fzd9	-1.23	1.33	1.41	enough cells to score
Hhat	1.42	1.45	1.39	enough cells to score
Nxn	0	1.73	1.52	enough cells to score
Ces2b	0.44	1.54	2.03	enough cells to score
Men1	0.23	1.48	1.36	enough cells to score
Pxn	0.18	1.44	1.21	enough cells to score
Prpf4	0.2	1.53	1.43	enough cells to score
Hspb8	-0.57	1.85	1.3	enough cells to score
E130113K22RIK	1.41	1.65	1.54	enough cells to score
Kank1		1.41	1.78	fewer than 50 cells per well; well left out of scoring
Agbl5	1.16	1.68	1.61	enough cells to score
Znrd2	-1.69 (active)	1.26	1.36	enough cells to score
Rint1		1.45	1.19	fewer than 50 cells per well; well left out of scoring
Sp4	-0.25	1.53	1.5	enough cells to score
Cdadc1		1.8	1.36	fewer than 50 cells per well; well left out of scoring
Ear6		1.23	1.21	fewer than 50 cells per well; well left out of scoring
4933402J07Rik		1.04	1.1	fewer than 50 cells per well; well left out of scoring
Gstm1	-0.56	1.71	1.33	enough cells to score
Flnb	-0.36	1.33	1.38	enough cells to score
Dspp	-0.01	1.52	1.34	enough cells to score
Isl2	-0.93	1.42	1.2	enough cells to score
Inppl1	-0.9	1.35	1.24	enough cells to score
Tmem53	0.62	1.62	1.54	enough cells to score
Epha3	-0.02	1.65	1.41	enough cells to score
Kpna1	-1.39	1.31	1.18	enough cells to score
Or2ag19	0.66	1.53	1.24	enough cells to score
Ncoa3	-0.49	1.36	1.3	enough cells to score
Cxcl15	-0.48	1.44	1.78	enough cells to score
Spidr		1.43	1.69	fewer than 50 cells per well; well left out of scoring
Chchd2	-1.48	1.4	1.51	enough cells to score
Hpx	-3.25 (active)	1.28	1.1	enough cells to score
Abcc5	0.78	1.79	1.67	enough cells to score
Cer1	0.63	1.63	1.95	enough cells to score
Or52e4	0.13	1.48	1.28	enough cells to score
Vmn1r67	0.05	1.3	1.23	enough cells to score
Snx11	0.43	1.38	1.28	enough cells to score
Onecut1	-0.33	1.44	1.34	enough cells to score
Sgms2		1.2	1.27	fewer than 50 cells per well; well left out of scoring
Or5ak25	0.18	1.48	1.25	enough cells to score
Ern2	-0.26	1.59	1.39	enough cells to score
Ciita	0.53	1.71	1.68	enough cells to score
Nsun2	-1.53	1.33	1.55	enough cells to score
Rbm47	0.02	1.59	1.83	enough cells to score
Mdh1b	-0.04	1.38	1.41	enough cells to score
Iap (retired record)	-0.64	1.48	1.32	enough cells to score
Syngr4	1.84	1.6	1.39	enough cells to score
Hkdc1	0.62	1.65	1.97	enough cells to score
Vmn1r199		1.22	0.848	fewer than 50 cells per well; well left out of scoring
Cnksr3	0.89	1.89	1.64	enough cells to score
Slc1a5		1.41	1.31	fewer than 50 cells per well; well left out of scoring
Tjap1	0.91	1.53	1.71	enough cells to score
Msh6	0.02	1.45	1.34	enough cells to score
Dcaf7	0.08	1.58	1.67	enough cells to score

Individual results from the entries so far.
For “nuclear/cytoplasmic p65 ratio, rep 2”, Epha3 has 1.41
Under “nuclear/cytoplasmic p65 ratio, rep 1”, Ciita has 1.71
Entry for Npas2 in “low cell count flag”: enough cells to score
